Results from the supplement of paper PMC8090911.
Structures can show the parent of a compound that is named as a salt. This is one part of the list. Repeats are few or missing, and single values can be far off.

The compounds below were run on p95-ErbB2-MCF7 (assay: perinuclear lysosome accumulation (PNLA, size of LAMP2 puncta), robust Z-score vs plate median; higher = more perinuclear lysosome accumulation (reversal of invasive lysosome distribution)). Settings: 5 µM; 24 h.
`CCN(CC)CCOC(=O)c1ccc(N)cc1` [Procaine hydrochloride] was tested, and the perinuclear lysosome accumulation was 1.29. Work on `Cc1c(C)c2c(c(C)c1O)CCC(C)(C(=O)O)O2` (stereo unspecified) [Trolox] yielded a perinuclear lysosome accumulation of -0.377. For `CC[C@H](C)C(=O)O[C@H]1C[C@@H](C)C=C2C=C[C@H](C)[C@H](CC[C@@H]3C[C@@H](O)CC(=O)O3)[C@H]21` [Lovastatin], the perinuclear lysosome accumulation was 0.298. `CNC(=O)c1c(I)c(C(=O)NCC(=O)Nc2c(I)c(C(=O)O)c(I)c(C(=O)NCCO)c2I)c(I)c(N(C)C(C)=O)c1I` [Ioxaglic acid] showed a perinuclear lysosome accumulation of -1.1. Compound `CCCCNc1cc(C(=O)O)cc(S(N)(=O)=O)c1Oc1ccccc1` [Bumetanide] has a perinuclear lysosome accumulation of -0.284. `CC(=O)Oc1ccccc1C(=O)Oc1ccccc1C(=O)O` [Acetylsalicylsalicylic acid] gave a perinuclear lysosome accumulation of -0.0859. `N=C(N)NCc1cccc(I)c1` [Iobenguane sulfate] gave a perinuclear lysosome accumulation of -0.279. `Cc1ccnc(NS(=O)(=O)c2ccc(N)cc2)n1` [Sulfamerazine] gave a perinuclear lysosome accumulation of -0.233. For `C[C@H]1NC(=O)NC1=O` [Methylhydantoin-5-(D)], the perinuclear lysosome accumulation was 0.358. In the case of `CNC[C@H](O)[C@@H](O)[C@H](O)[C@H](O)CO` [Meglumine], the perinuclear lysosome accumulation is reported as 1.03. Compound `Nc1ccc(S(=O)(=O)Nc2cnc3ccccc3n2)cc1` [Sulfaquinoxaline sodium salt] has a perinuclear lysosome accumulation of 0.487. In the case of `NCCCC(O)(P(=O)(O)O)P(=O)(O)O` [Alendronate sodium], the perinuclear lysosome accumulation is reported as 0.000183. With `O=C(O)c1cc(/N=N/c2ccc(S(=O)(=O)Nc3ccccn3)cc2)ccc1O` [Sulfasalazine] the perinuclear lysosome accumulation was -0.508. With `CCc1cccc(CC)c1NC(=O)CN(CC(=O)O)CC(=O)O` [Etifenin] the perinuclear lysosome accumulation was 1.31. For `CN/C(=N\CCSCc1nc[nH]c1C)NC#N` [Cimetidine], the perinuclear lysosome accumulation was 0.0111. For `CCCCc1ccc2[nH]c(NC(=O)OC)nc2c1` [Parbendazole], the perinuclear lysosome accumulation was -0.56. `Nc1ncnc2c1ncn2C1OC(COP(=O)(O)O)C(O)C1O` (stereo unspecified) [Adenosine 5'-monophosphate monohydrate] gave a perinuclear lysosome accumulation of -0.191. With `C[C@@H]1C[C@H]2[C@@H]3CCC4=CC(=O)C=C[C@]4(C)[C@@]3(Cl)[C@@H](O)C[C@]2(C)[C@@]1(OC(=O)c1ccco1)C(=O)CCl` [Mometasone furoate] the perinuclear lysosome accumulation was -1.78. With `CN1CCCN(C(c2ccccc2)c2ccc(Cl)cc2)CC1` (stereo unspecified) [Homochlorcyclizine dihydrochloride] the perinuclear lysosome accumulation was 4.74. For `CC(C)OC(=O)C(C)(C)Oc1ccc(C(=O)c2ccc(Cl)cc2)cc1` [Fenofibrate], the perinuclear lysosome accumulation was -0.0606. For `Cc1c(O)c(=O)n(-c2ccccc2)n1C` [Antipyrine, 4-hydroxy], the perinuclear lysosome accumulation was 1.92. Compound `Cc1cc2c(s1)Nc1ccccc1N=C2N1CCN(C)CC1` [Olanzapine] has a perinuclear lysosome accumulation of 1.09. `CN1CCCN=C1/C=C/c1cccc(O)c1` [Oxantel pamoate] gave a perinuclear lysosome accumulation of 0.0633. Work on `CC(N)CCCC(C)(C)O` (stereo unspecified) [Heptaminol hydrochloride] yielded a perinuclear lysosome accumulation of -0.271. `CC(=O)O[C@H]1C(=O)[C@@]2(C)[C@H]([C@H](OC(=O)c3ccccc3)[C@]3(O)C[C@H](OC(=O)[C@H](O)[C@@H](NC(=O)c4ccccc4)c4ccccc4)C(C)=C1C3(C)C)[C@]1(OC(C)=O)CO[C@@H]1C[C@@H]2O` [Paclitaxel] showed a perinuclear lysosome accumulation of 0.884. For `CCCN(CCC)CCc1cccc2c1CC(=O)N2` [Ropinirole HCl], the perinuclear lysosome accumulation was 0.534. For `Cc1nc2ccccn2c(=O)c1CCN1CCC(C(=O)c2ccc(F)cc2)CC1` [Pirenperone], the perinuclear lysosome accumulation was -1.3. `N/C(=N\C(=O)c1nc(Cl)c(N)nc1N)NCc1ccccc1` [Benzamil hydrochloride] showed a perinuclear lysosome accumulation of -2.59. Work on `O=C(CCNNC(=O)c1ccncc1)NCc1ccccc1` [Nialamide] yielded a perinuclear lysosome accumulation of -0.158. `NC(=O)c1cnccn1` [Pyrazinamide] was tested, and the perinuclear lysosome accumulation was 0.411. Compound `CC1(C)S[C@@H]2[C@H](NC(=O)[C@H](N)c3ccccc3)C(=O)N2[C@H]1C(=O)O` [Ampicillin trihydrate] has a perinuclear lysosome accumulation of -0.0969. For `O=c1n(CCCN2CCN(c3cccc(Cl)c3)CC2)nc2ccccn12` [Trazodone hydrochloride], the perinuclear lysosome accumulation was 0.501. `COc1ccc2cc([C@H](C)C(=O)O)ccc2c1` [Naproxen] was tested, and the perinuclear lysosome accumulation was 1. `Nc1cc(N2CCCCC2)nc(N)[n+]1[O-]` [Minoxidil] was tested, and the perinuclear lysosome accumulation was 1.02. `Cc1ncc([N+](=O)[O-])n1CC(C)O` (stereo unspecified) [Secnidazole] gave a perinuclear lysosome accumulation of -0.388. Work on `C/C=C(/C(=C/C)c1ccc(O)cc1)c1ccc(O)cc1` [Dienestrol] yielded a perinuclear lysosome accumulation of -0.0646. Compound `O=C(O)c1ccccc1OP(=O)(O)O` [Fosfosal] has a perinuclear lysosome accumulation of 0.421. For `COc1cccc2c1C(=O)c1c(O)c3c(c(O)c1C2=O)C[C@@](O)(C(C)=O)C[C@@H]3O[C@H]1C[C@H](N)[C@H](O)[C@H](C)O1` [Daunorubicin hydrochloride], the perinuclear lysosome accumulation was -1.38. `C=CC1=C(C(=O)O)N2C(=O)[C@@H](NC(=O)/C(=N\O)c3csc(N)n3)[C@H]2SC1` [Cefdinir] gave a perinuclear lysosome accumulation of -0.463. With `CC(=O)NS(=O)(=O)c1ccc(N)cc1` [Sulfacetamide sodic hydrate] the perinuclear lysosome accumulation was -1.19. Compound `Cc1cn([C@H]2C=C[C@@H](CO)O2)c(=O)[nH]c1=O` [Stavudine] has a perinuclear lysosome accumulation of 1.04. Compound `CCN(CC)CC(=O)Nc1c(C)cccc1C` [Lidocaïne hydrochloride] has a perinuclear lysosome accumulation of -0.138. Work on `c1ccc2c(CC3=NCCN3)cccc2c1` [Naphazoline hydrochloride] yielded a perinuclear lysosome accumulation of 0.734. `CC(=O)OCC(=O)[C@@]12OC(C)(C)O[C@@H]1C[C@H]1[C@@H]3C[C@H](F)C4=CC(=O)C=C[C@]4(C)[C@@]3(F)[C@@H](O)C[C@@]12C` [Fluocinonide] showed a perinuclear lysosome accumulation of -1.9. For `CO[C@@H]1[C@@H](O[C@@H]2O[C@H](C)[C@@H](O[C@H]3C[C@@](C)(O)[C@@H](OC(=O)CC(C)C)[C@H](C)O3)[C@H](N(C)C)[C@H]2O)[C@@H](CC=O)C[C@@H](C)[C@@H](O)/C=C/C=C/C[C@@H](C)OC(=O)C[C@H]1OC(C)=O` [Josamycin], the perinuclear lysosome accumulation was 0.247. Compound `CC(=O)CC(c1ccccc1)c1c(O)c2ccccc2oc1=O` (stereo unspecified) [Warfarin] has a perinuclear lysosome accumulation of 1.2. `CC[C@@H]1C(=O)OC[C@@H]1Cc1cncn1C` [Pilocarpine nitrate] showed a perinuclear lysosome accumulation of 0.399. `CC(C)NC[C@@H](O)COc1ccc(CC(N)=O)cc1` [(R)-(+)-Atenolol] was tested, and the perinuclear lysosome accumulation was -1.61. `NS(=O)(=O)c1cc2c(cc1C(F)(F)F)NCNS2(=O)=O` [Hydroflumethiazide] showed a perinuclear lysosome accumulation of -0.845. In the case of `CS(=O)(=O)OCCCCOS(C)(=O)=O` [Busulfan], the perinuclear lysosome accumulation is reported as -0.454. With `Cc1c(NC(=O)c2cccnc2)c(=O)n(-c2ccccc2)n1C` [Nifenazone] the perinuclear lysosome accumulation was 2.13. For `N[C@@H](Cc1cc(I)c(Oc2ccc(O)c(I)c2)c(I)c1)C(=O)O` [Liothyronine], the perinuclear lysosome accumulation was -1.36. Compound `CN1CCC(=C2c3ccccc3Sc3ccccc32)CC1` [Pimethixene maleate] has a perinuclear lysosome accumulation of 1.97. `C#C[C@]1(O)CC[C@H]2[C@@H]3CCC4=CCCC[C@@H]4[C@H]3CC[C@@]21C` [Lynestrenol] was tested, and the perinuclear lysosome accumulation was -0.867. `C[C@H](CCC(=O)O)[C@H]1CC[C@H]2[C@@H]3[C@@H](O)C[C@@H]4C[C@H](O)CC[C@]4(C)[C@H]3CC[C@]12C` [Urosiol] showed a perinuclear lysosome accumulation of 0.986. Work on `O=C(CCCN1CCN(c2ccccn2)CC1)c1ccc(F)cc1` [Azaperone] yielded a perinuclear lysosome accumulation of 0.22. `NC[C@@H]1O[C@@H](O[C@H]2[C@H](O)[C@@H](O[C@H]3O[C@H](CO)[C@@H](O)[C@H](N)[C@H]3O)[C@H](N)C[C@@H]2N)[C@@H](O)[C@H](O)[C@H]1O` [Kanamycin A sulfate] gave a perinuclear lysosome accumulation of -0.353. Work on `CC1CC(OC(=O)c2ccccc2O)CC(C)(C)C1` (stereo unspecified) [Homosalate] yielded a perinuclear lysosome accumulation of 0.151. `COC(=O)C1=C(C#N)NC(C)=C(C(=O)OC(C)C)C1c1cccc([N+](=O)[O-])c1` (stereo unspecified) [Nilvadipine] was tested, and the perinuclear lysosome accumulation was -0.0506. Work on `OCCN(CCO)c1nc(N2CCCCC2)c2nc(N(CCO)CCO)nc(N3CCCCC3)c2n1` [Dipyridamole] yielded a perinuclear lysosome accumulation of 0.459. With `O=C(O)c1ccccc1C(=O)Nc1ccc(S(=O)(=O)Nc2nccs2)cc1` [Phthalylsulfathiazole] the perinuclear lysosome accumulation was -0.339. For `CN1CCN(C(c2ccccc2)c2ccccc2)CC1` [Cyclizine hydrochloride], the perinuclear lysosome accumulation was 0.295. Compound `CN(C)CCOC(c1ccccc1)c1ccccc1.Cn1c(=O)c2[nH]c(Cl)nc2n(C)c1=O` [Dimenhydrinate] has a perinuclear lysosome accumulation of 0.473. For `Clc1ccc2c(c1)CCc1cccnc1C2=C1CCNCC1` [Desloratadine], the perinuclear lysosome accumulation was 2.15. `O=C1NCC2(CCN(CCc3ccccc3)CC2)O1` [Fenspiride hydrochloride] was tested, and the perinuclear lysosome accumulation was -1.26. For `CCCOc1ccc2[nH]c(NC(=O)OC)nc2c1` [Oxibendazol], the perinuclear lysosome accumulation was -1.24. `O=C(c1ccc(F)cc1)C1CCN(CCn2c(=O)[nH]c3ccccc3c2=O)CC1` [Ketanserin tartrate hydrate] was tested, and the perinuclear lysosome accumulation was -1.61. With `CCN(CC)C(=O)c1ccc(O)c(OC)c1` [Ethamivan] the perinuclear lysosome accumulation was -0.67. `CN(C)C(=N)NC(=N)N` [Metformin hydrochloride] was tested, and the perinuclear lysosome accumulation was -0.54. For `NCCCCCC(=O)O` [Aminocaproic acid], the perinuclear lysosome accumulation was 0.591. `CNCCc1ccccn1` [Betahistine mesylate] gave a perinuclear lysosome accumulation of 0.632. `CC=CC(=O)N(CC)c1ccccc1C` [Crotamiton] showed a perinuclear lysosome accumulation of -2.23. Work on `Nc1nc2c(ncn2COC(CO)CO)c(=O)[nH]1` [Ganciclovir] yielded a perinuclear lysosome accumulation of 0.129. Compound `Clc1cccc(Cl)c1NC1=NCCN1` [Clonidine hydrochloride] has a perinuclear lysosome accumulation of 0.512. Compound `CO[C@H]1/C=C/O[C@@]2(C)Oc3c(C)c(O)c4c(O)c(c5c(nc6cc(C)ccn65)c4c3C2=O)NC(=O)/C(C)=C\C=C\[C@H](C)[C@H](O)[C@@H](C)[C@@H](O)[C@@H](C)[C@H](OC(C)=O)[C@@H]1C` [Rifaximin] has a perinuclear lysosome accumulation of 0.191. `CC(=O)O[C@]1(C(C)=O)CC[C@H]2[C@@H]3C=C(Cl)C4=CC(=O)CC[C@]4(C)[C@H]3CC[C@@]21C` [Chlormadinone acetate] gave a perinuclear lysosome accumulation of 0.483.
